The values that follow come from paper PMC9941103.

This experiment addresses T1, full-length Complexin-1, P63041.
T1 chain: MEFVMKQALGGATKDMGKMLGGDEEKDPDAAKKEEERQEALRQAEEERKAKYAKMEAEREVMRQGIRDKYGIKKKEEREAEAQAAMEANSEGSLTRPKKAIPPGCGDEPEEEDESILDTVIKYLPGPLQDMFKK
Nature of the experiment: cross-linking; one protein alone: 10 µM SNAP25 or Syntaxin-1A with 150-fold molar excess of BS3, 50 µM Complexin-1 with 10-fold excess; trypsin, peptide SEC, LC-MS/MS; inter-molecular links told by identical or overlapping peptides; both purified. As to conditions: remark: other sources report otherwise.

No constants are given. Whether binding was seen depends on the method and setting. Some binding calls cover weakened binding; strength is not graded here.

B1: full-length Complexin-1, P63041 1-134 (natural protein)
chain: MEFVMKQALGGATKDMGKMLGGDEEKDPDAAKKEEERQEALRQAEEERKAKYAKMEAEREVMRQGIRDKYGIKKKEEREAEAQAAMEANSEGSLTRPKKAIPPGCGDEPEEEDESILDTVIKYLPGPLQDMFKK
For B1, the binding entry is reported as “binds”.
